Test [1] addresses T1, human αIIbβ3 integrin on transfected CHO K1 cells (human) (UniProt P08514+P05106). Kind of test: adhesion of αIIbβ3 CHO K1 cells to adsorbed fibrinogen.
In test [2] the target is T1, human αIIbβ3 integrin on transfected CHO K1 cells (human). The test can be described thus: adhesion of αIIbβ3 CHO cells to adsorbed fibrinogen.

Sequences of proteins named here, by UniProt entry; tags and fusion partners are left off. A change or cut given only in a name is not applied to a line headed by its entry.
UniProt P08514: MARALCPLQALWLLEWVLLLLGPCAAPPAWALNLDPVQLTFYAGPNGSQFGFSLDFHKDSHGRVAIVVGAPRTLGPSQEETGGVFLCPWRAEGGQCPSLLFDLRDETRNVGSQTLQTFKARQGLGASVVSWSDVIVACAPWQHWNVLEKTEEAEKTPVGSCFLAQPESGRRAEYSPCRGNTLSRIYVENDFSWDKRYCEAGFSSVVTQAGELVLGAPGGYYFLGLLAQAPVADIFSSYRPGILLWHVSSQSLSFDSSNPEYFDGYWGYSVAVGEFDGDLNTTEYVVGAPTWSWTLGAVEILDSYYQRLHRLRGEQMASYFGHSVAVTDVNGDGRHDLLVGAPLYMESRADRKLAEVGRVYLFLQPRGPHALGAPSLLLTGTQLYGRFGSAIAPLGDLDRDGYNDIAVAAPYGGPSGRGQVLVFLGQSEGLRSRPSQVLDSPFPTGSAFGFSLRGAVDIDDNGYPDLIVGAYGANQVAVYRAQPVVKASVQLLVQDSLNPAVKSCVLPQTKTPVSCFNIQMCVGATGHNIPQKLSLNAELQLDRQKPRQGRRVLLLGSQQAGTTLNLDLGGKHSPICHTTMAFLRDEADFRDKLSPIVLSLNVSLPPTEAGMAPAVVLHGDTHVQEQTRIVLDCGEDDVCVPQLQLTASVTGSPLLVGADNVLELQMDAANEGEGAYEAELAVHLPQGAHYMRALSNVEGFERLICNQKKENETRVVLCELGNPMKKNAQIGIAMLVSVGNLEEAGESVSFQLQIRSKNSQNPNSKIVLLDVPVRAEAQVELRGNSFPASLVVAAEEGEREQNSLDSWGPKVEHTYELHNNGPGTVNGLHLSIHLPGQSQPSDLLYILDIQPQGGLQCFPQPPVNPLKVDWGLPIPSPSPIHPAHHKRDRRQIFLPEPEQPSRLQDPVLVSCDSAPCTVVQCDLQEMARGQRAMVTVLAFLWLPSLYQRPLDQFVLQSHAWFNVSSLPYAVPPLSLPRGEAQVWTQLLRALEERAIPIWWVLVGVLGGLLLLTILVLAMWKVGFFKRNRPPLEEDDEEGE
UniProt P05106: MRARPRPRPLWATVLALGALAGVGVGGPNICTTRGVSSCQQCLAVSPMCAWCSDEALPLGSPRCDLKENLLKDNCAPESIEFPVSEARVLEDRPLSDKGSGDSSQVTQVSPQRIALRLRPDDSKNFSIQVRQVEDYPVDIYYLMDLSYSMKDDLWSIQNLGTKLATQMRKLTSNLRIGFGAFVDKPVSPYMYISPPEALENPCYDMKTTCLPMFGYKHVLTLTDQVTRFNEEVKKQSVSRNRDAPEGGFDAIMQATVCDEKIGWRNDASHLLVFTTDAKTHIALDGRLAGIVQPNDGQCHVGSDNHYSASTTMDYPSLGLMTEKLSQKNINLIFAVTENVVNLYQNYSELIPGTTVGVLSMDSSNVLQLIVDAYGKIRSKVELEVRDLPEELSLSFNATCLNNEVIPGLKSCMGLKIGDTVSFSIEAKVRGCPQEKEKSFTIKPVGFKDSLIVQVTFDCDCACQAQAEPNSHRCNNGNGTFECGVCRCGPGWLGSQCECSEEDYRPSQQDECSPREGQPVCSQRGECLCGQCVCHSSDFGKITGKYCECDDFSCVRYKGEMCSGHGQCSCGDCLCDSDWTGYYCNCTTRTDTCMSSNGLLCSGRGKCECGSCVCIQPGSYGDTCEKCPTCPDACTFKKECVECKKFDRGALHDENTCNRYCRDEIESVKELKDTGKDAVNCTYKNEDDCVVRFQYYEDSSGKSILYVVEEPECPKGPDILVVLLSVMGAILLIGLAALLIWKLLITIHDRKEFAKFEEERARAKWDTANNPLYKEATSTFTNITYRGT
UniProt P02671: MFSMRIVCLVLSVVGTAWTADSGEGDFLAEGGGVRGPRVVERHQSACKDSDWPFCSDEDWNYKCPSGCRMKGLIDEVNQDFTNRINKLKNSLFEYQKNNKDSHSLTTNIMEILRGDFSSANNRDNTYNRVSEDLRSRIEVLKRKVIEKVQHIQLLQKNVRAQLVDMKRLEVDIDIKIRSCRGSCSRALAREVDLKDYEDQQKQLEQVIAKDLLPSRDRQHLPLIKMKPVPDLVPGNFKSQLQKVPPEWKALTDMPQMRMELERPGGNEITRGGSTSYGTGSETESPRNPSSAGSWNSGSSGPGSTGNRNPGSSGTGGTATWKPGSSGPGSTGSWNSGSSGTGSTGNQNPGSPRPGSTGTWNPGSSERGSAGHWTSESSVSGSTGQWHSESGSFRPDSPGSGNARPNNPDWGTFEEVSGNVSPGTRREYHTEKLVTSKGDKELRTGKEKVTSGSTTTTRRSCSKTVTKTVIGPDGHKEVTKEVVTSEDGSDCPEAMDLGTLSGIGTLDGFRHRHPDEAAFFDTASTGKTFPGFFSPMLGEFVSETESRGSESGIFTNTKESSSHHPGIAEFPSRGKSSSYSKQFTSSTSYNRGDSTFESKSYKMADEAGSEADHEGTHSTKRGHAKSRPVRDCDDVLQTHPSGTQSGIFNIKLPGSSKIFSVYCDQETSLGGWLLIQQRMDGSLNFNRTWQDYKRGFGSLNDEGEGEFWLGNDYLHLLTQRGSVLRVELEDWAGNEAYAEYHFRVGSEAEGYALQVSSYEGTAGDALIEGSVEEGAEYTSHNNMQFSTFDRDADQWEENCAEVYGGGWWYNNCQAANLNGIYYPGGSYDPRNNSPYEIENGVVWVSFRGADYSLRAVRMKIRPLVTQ

These are yes or no findings as the source states them, for the method shown. Some results given as binding are weak or reduced against the parent protein; the word gives no strength.

As for “Human fibrinogen (Fbg), adsorbed on a hydrophobic (dodecanethiol) monolayer (from UniProt P02671 20-629; P02675 31-491; P02679 27-437) (ligand)”, the binding result in test [1] and in test [2] was “binds” each time.

(Values after patent US20120252730A1, “PLATELET AGGREGATION INHIBITORS” (UNIVERSITY OF CHICAGO, priority 2009, published 2012).)
